The values that follow come from article doi:10.1101/2020.09.17.302448.

Amino acid sequences for entries named in this document (tags omitted).
UniProt P35568: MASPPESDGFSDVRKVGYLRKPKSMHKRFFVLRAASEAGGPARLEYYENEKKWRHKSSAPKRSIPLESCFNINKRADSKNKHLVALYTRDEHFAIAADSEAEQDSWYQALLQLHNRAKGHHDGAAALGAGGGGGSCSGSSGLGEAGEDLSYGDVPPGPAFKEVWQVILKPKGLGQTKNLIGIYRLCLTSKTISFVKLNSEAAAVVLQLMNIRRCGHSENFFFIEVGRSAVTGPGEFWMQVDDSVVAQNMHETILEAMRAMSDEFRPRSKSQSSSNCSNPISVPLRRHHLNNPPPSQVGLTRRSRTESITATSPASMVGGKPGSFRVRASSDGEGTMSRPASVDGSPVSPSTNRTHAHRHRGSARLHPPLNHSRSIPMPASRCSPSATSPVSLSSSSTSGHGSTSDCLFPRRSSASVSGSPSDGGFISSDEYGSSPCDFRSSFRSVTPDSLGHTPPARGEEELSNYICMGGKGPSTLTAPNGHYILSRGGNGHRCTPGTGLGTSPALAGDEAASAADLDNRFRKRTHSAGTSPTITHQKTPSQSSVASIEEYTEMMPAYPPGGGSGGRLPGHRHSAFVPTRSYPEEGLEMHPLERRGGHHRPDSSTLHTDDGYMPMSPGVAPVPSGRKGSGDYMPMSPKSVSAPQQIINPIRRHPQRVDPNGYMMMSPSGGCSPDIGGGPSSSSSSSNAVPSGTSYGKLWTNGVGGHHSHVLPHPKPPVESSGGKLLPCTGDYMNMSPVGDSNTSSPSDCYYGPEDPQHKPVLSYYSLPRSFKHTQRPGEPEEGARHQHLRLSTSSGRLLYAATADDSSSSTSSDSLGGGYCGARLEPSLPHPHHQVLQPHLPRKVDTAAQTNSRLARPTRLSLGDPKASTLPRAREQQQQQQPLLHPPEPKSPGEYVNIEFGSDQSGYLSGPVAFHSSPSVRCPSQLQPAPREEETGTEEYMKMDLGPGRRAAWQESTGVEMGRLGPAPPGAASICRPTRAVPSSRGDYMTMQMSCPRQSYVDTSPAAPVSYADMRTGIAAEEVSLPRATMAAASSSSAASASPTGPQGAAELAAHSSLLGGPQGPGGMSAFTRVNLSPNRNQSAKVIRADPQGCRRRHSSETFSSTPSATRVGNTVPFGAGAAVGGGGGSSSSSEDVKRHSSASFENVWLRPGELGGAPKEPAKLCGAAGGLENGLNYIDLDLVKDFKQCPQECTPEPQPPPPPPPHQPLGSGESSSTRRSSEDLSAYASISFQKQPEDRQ
UniProt P25098: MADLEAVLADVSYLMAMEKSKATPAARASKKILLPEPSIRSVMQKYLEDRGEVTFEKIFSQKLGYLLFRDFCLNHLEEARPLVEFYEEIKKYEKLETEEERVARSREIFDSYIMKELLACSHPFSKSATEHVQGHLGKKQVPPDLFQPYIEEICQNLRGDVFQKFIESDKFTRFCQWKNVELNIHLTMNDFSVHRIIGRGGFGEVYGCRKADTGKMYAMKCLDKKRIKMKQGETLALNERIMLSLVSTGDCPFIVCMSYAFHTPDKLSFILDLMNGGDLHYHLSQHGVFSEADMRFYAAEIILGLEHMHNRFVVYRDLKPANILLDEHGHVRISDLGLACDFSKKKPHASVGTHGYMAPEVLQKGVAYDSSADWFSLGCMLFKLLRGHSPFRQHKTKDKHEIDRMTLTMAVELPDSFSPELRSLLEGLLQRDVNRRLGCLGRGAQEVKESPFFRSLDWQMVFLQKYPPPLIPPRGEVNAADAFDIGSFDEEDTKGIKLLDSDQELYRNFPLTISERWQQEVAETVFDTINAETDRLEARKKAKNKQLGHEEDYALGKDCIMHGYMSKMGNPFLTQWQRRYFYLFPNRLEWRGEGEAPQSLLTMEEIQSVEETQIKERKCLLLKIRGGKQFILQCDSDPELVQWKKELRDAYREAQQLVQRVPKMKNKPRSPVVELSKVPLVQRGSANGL
UniProt P48736: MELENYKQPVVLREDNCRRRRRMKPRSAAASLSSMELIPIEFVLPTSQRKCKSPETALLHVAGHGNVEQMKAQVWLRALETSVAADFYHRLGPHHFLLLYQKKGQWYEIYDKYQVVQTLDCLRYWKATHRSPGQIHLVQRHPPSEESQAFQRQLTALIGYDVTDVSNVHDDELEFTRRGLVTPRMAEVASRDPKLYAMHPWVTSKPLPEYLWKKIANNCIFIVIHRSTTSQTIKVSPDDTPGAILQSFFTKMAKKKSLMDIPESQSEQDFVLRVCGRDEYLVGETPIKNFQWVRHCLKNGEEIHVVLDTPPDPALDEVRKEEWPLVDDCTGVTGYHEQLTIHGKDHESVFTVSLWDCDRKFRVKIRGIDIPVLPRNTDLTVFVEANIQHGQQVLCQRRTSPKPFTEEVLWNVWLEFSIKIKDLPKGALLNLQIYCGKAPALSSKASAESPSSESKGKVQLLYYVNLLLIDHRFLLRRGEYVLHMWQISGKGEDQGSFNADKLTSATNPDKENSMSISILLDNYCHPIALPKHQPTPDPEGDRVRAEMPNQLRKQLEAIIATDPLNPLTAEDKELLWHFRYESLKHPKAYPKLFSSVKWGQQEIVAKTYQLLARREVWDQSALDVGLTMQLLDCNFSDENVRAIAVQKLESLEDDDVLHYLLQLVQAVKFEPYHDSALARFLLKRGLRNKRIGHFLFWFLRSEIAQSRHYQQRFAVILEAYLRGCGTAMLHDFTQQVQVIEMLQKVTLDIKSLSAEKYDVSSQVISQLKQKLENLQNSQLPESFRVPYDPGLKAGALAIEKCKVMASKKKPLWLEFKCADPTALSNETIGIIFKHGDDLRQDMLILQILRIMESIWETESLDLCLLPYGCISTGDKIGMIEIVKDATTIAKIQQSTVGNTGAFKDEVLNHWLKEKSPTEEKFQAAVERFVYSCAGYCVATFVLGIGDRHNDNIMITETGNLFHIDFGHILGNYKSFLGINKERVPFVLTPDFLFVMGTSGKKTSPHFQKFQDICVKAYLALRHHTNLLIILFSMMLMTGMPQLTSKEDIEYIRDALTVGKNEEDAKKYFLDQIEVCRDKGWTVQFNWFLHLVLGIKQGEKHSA

For assay [1], the target named is insulin receptor substrate 1 (IRS1), endogenous (human (endogenous in HEK 293)) (UniProt P35568). The assay can be described thus: co-IP.
The target in assay [2] is T1, insulin receptor substrate 2 (IRS2), endogenous (human (endogenous in HEK 293)) (UniProt Q9Y4H2).
T1 sequence: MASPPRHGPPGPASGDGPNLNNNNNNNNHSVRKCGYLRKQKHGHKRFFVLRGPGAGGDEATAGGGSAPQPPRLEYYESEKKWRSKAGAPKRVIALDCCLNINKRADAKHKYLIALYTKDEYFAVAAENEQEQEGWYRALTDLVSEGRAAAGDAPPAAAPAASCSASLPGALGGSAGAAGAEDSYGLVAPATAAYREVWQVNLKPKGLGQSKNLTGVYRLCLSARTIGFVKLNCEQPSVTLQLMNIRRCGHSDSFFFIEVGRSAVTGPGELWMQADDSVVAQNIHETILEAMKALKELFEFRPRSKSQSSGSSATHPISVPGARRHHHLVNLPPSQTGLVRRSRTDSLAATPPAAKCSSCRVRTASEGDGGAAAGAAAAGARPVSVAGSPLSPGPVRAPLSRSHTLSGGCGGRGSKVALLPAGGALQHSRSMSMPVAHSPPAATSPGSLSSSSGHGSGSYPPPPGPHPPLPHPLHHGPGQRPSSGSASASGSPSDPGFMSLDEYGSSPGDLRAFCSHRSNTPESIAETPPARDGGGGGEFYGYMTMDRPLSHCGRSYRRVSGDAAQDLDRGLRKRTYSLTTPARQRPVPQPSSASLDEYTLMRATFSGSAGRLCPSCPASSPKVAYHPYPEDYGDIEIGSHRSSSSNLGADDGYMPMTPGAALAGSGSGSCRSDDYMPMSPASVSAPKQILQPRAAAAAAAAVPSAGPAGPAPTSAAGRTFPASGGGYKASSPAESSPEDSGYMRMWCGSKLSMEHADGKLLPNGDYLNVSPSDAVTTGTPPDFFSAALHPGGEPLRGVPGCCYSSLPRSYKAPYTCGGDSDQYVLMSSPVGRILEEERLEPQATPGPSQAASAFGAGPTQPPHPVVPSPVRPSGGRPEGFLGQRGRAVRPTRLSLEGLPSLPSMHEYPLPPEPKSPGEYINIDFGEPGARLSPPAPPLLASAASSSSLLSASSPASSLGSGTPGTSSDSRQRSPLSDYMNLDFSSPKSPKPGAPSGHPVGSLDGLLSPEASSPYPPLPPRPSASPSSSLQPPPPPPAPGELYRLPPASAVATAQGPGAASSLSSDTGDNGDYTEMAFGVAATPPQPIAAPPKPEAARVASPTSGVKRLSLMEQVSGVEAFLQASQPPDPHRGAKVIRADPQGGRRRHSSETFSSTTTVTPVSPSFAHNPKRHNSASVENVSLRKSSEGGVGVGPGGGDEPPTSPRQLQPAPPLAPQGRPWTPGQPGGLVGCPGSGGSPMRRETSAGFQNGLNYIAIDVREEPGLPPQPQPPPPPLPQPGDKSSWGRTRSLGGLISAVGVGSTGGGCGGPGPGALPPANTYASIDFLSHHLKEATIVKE
Description: co-IP.

These are yes or no findings as the source states them, for the method shown. Binding seen in cells or lysates may run through a third protein. Some binding calls cover weakened binding; strength is not graded here.

For “G protein-coupled receptor kinase 2 (GRK2), endogenous in FLAG-β2AR HEK 293 cells (from UniProt P25098 1-689) (enzyme)”, the binding result in assay [1] and in assay [2] was “binds” in each case.

As for “phosphoinositide 3-kinase γ (PI3Kγ), endogenous in FLAG-β2AR HEK 293 cells (from UniProt P48736 1-1102) (enzyme)”, the binding entry in assay [2] is “binds weakly”.
